Values of other authors as cited in patent US9044437B2, “Method for treating alzheimer's disease using pharmacological chaperones to increase the activity of gangliosidases” (Amicus Therapeutics, Inc., priority 2009, dated 2015).
At least one structure is not confirmed: it was looked up by name or label, or the drawing left a doubt.

Biological target: B-Hex (β-hexosaminidase, Hex A/B)
Conditions: marked *: Values reported in the literature; cited from earlier work

In the case of `CCc1nc(N)nc(N)c1-c1ccc(Cl)cc1` [pyrimethamine, Pyrimethamine], the IC50 is given as 13 µM.
